Test results reported in article PMC13043894.
No constants are given. Whether binding was seen depends on the method and setting. Binding seen in cells or lysates may run through a third protein. Some binding calls cover weakened binding; strength is not graded here. For some assays here: Where a sequence is shown, tags or fusion partners need not be part of it.

Amino acid sequences for entries named in this document (tags omitted).
UniProt P61765: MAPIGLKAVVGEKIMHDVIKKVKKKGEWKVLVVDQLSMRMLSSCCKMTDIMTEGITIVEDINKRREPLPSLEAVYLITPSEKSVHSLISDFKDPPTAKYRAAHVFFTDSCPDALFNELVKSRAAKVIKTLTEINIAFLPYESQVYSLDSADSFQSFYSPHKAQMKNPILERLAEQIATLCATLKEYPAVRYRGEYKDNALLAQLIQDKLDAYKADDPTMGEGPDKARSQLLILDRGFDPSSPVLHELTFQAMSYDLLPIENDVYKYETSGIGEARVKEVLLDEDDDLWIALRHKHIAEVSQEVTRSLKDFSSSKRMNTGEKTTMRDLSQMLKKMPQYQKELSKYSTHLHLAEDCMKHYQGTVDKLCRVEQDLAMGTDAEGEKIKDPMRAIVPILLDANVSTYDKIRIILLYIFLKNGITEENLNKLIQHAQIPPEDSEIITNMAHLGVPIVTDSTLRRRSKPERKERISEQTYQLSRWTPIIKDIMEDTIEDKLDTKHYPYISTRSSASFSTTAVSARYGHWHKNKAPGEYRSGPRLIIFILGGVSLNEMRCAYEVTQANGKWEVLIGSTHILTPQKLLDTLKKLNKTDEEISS
UniProt P34077: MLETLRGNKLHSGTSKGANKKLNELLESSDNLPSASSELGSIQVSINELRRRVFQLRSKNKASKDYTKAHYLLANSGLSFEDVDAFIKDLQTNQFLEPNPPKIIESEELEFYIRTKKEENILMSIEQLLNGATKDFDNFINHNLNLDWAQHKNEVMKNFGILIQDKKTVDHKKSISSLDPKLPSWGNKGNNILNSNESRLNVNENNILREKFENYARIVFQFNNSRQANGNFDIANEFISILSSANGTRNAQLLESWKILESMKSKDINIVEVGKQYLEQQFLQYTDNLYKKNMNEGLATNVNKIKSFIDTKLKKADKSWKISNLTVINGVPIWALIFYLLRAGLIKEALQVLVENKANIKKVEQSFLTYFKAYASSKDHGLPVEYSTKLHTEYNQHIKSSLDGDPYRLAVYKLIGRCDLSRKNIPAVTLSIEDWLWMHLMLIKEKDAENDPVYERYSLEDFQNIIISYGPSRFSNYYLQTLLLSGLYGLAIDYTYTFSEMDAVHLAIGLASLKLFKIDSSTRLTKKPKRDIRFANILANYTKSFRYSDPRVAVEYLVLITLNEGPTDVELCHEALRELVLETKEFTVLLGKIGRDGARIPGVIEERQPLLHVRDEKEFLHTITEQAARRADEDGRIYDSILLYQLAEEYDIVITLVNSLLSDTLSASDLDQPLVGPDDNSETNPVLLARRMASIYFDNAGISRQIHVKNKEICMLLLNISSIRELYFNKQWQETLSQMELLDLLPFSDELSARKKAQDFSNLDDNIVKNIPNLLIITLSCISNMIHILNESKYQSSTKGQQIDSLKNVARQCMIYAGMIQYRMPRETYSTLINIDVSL

Columns and labels:
[1] = target: T1, GST-Brl1^1-200 (S. cerevisiae) (UniProt P38770); assay: pull-down; GST-Brl1^1-200 or GST-nSec1 bound to glutathione beads, incubated with lysate of E. coli expressing 6His-Nic96; immunoblot with GST and 6His antibodies; only the target purified
T1 sequence: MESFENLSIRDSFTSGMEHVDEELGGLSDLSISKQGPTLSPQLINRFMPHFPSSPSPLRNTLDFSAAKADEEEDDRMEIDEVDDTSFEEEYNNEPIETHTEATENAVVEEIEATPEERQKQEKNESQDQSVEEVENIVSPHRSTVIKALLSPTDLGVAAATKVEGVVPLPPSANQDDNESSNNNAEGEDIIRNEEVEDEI

[2] = target: GST-nSec1 (UniProt P61765); assay: as above

binding [1]: binds
binding [2]: no binding
Substance: 6His-Nic96 (from UniProt P34077 1-839)
